In patent US20190336544A1 one finds binding data, which are given here for 3 molecules.

Chains of the proteins cited; added tags and fusions are not shown. Residues count along the entry.
UniProt P27548, residues 112-260: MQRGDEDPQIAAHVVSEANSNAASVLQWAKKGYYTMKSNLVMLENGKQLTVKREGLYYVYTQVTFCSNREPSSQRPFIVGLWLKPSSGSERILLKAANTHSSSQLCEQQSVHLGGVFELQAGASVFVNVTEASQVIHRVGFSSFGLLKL

No constants are given. Whether binding was seen depends on the method and setting. Some results given as binding are weak or reduced against the parent protein; the word gives no strength. For part of these data: Where a sequence is shown, tags or fusion partners need not be part of it.

Assay [1] addresses T1, mCD40, coated on ELISA plates (mouse) (UniProt P27512).
T1 sequence (looked up): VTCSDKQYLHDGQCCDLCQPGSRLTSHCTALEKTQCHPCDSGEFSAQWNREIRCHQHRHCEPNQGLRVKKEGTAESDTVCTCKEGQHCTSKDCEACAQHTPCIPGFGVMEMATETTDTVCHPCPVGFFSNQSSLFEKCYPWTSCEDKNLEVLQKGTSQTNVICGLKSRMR
Description: ELISA; mCD40 coated.

The target of assay [2] is T2, CD47 on mouse CT26 cells (mouse) (UniProt Q61735).
T2 sequence (looked up): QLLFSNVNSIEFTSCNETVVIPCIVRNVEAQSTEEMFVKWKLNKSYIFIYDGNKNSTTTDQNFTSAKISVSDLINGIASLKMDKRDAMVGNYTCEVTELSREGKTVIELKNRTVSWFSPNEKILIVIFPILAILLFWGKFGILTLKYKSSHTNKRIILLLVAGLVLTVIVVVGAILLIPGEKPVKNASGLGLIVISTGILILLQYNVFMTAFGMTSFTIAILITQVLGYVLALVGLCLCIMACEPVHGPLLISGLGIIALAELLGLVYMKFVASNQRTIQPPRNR
Description: flow cytometry on CT26 cells (FIG. 27). For orientation: A flow cytometer gives signals particle by particle.

For assay [3], the target named is T2, CD47 on mouse CT26 cells (mouse). As to the kind of experiment: flow cytometry on CT26 cells, 10 µL of 10x concentrated supernatant.
Assay [4] addresses T3, mouseCD47, coated on ELISA plates (mouse) (UniProt Q61735).
T3 sequence (looked up): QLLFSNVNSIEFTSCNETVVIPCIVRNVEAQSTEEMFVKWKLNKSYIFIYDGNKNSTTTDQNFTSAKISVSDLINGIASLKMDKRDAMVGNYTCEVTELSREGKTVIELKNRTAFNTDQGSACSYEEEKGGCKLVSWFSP
As to the kind of experiment: ELISA; mCD47 coated.

In assay [5] the target is T2, CD47 on mouse CT26 cells (mouse). As to the kind of experiment: competition flow cytometry on CT26 cells (FIG. 29).
For assay [6] the target is unchanged. As to the kind of experiment: competition flow cytometry on CT26 cells; competitor of the secreted SIRPalpha.

Take “secreted mCD40L2 (112-260)-V5-HIS (SYN3367) (from UniProt P27548 112-260) (ligand)”: the binding entry in assay [1] is on record as “binds”.

B1: secreted WT mSIRPα (FLAG-mSIRPa(32-373)-V5-HIS, SYN2996) (receptor, mouse, UniProt P97797 32-373, looked up, not shown: small tags and cut ends)
chain: KELKVTQPEKSVSVAAGDSTVLNCTLTSLLPVGPIRWYRGVGPSRLLIYSFAGEYVPRIRNVSDTTKRNNMDFSIRISNVTPADAGIYYCVKFQKGSSEPDTEIQSGGGTEVYVLAKPSPPEVSGPADRGIPDQKVNFTCKSHGFSPRNITLKWFKDGQELHPLETTVNPSGKNVSYNISSTVRVVLNSMDVNSKVICEVAHITLDRSPLRGIANLSNFIRVSPTVKVTQQSPTSMNQVNLTCRAERFYPEDLQLIWLENGNVSRNDTPKNLTKNTDGTYNYTSLFLVNSSAHREDVVFTCQVKHDQQPAITRNHTVLGFAHSSDQGSMQTFPDNNATHNWN
As for B1, the binding result in assay [2], in assay [3] and in assay [4] was “binds” in each case.

B2: recombinant SIRPα (Rndsystems) (receptor, mouse, UniProt P97797 32-373, looked up)
chain: B1 chain
In the case of B2, the binding result in assay [5] and in assay [6] was “binds” throughout.
